Laboratory results reported in paper PMC3445812.
These are yes or no findings as the source states them, for the method shown. Blank lines part the entries; values can stand above or below the substance they belong to.

Protein sequences, listed by entry. Tags and fused reporters are not part of them. Lines headed by an entry give the natural chain unless they say otherwise; changes in a name come on top. Residues count along the entry.
UniProt P45983, residues 1-363: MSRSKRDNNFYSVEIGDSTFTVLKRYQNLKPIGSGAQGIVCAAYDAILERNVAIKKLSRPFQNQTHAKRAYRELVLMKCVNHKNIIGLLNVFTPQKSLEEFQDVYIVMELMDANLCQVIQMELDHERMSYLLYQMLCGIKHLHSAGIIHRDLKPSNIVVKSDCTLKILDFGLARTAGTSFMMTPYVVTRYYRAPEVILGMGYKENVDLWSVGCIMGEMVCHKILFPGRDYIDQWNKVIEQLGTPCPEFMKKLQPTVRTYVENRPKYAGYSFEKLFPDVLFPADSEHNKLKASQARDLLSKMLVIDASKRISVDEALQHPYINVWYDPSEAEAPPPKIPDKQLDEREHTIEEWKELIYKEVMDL
UniProt O95747, residues 1-309: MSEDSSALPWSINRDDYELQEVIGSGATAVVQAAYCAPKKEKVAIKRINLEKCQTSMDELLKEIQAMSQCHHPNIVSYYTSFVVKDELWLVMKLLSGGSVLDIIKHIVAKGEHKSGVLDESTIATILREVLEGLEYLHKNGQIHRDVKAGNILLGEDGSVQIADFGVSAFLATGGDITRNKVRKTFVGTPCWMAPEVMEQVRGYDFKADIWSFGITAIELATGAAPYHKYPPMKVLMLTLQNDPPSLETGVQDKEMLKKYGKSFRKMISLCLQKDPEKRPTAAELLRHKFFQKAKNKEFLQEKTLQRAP

What was measured:
Assay in all cases: SEC; S200 16/60 gel filtration column in 20 mM Hepes pH 7.4, 500 mM NaCl, 0.5 mM TCEP, after Ni2+ IMAC; retention volumes compared with molecular weight standards; both purified
[1] = molecular target: Mitogen-activated protein kinase 8 isoform alpha1 (residues 1-363) (human) (UniProt P45983)
[2] = molecular target: Mitogen-activated protein kinase kinase 2 (residues 46-400) (human) (UniProt P36507)
[3] = molecular target: Oxidative-stress responsive 1 (residues 1-309) (human) (UniProt O95747)

binding [1]: no binding
Substance: Mitogen-activated protein kinase 8 isoform alpha1 (residues 1-363) (from UniProt P45983-2 1-363) (domain or fragment)

binding [2]: no binding
Substance: Mitogen-activated protein kinase kinase 2 (residues 46-400) (from UniProt P36507 46-400) (domain or fragment)

binding [3]: no binding
Substance: Oxidative-stress responsive 1 (residues 1-309) (from UniProt O95747 1-309) (domain or fragment)
